No constants are given. Whether binding was seen depends on the method and setting. Some results given as binding are weak or reduced against the parent protein; the word gives no strength.
Biological target: human DLL3 (human) (UniProt Q9NYJ7)
Assay: hybridoma screening: ELISA on immobilized DLL3 or flow cytometry on HEK-293T cells overexpressing hDLL3

By UniProt entry, the sequences of proteins in these tests, tags left out. Where a name states a change or a piece, a line headed by the entry shows the natural chain unless it says otherwise.
UniProt Q9NYJ7: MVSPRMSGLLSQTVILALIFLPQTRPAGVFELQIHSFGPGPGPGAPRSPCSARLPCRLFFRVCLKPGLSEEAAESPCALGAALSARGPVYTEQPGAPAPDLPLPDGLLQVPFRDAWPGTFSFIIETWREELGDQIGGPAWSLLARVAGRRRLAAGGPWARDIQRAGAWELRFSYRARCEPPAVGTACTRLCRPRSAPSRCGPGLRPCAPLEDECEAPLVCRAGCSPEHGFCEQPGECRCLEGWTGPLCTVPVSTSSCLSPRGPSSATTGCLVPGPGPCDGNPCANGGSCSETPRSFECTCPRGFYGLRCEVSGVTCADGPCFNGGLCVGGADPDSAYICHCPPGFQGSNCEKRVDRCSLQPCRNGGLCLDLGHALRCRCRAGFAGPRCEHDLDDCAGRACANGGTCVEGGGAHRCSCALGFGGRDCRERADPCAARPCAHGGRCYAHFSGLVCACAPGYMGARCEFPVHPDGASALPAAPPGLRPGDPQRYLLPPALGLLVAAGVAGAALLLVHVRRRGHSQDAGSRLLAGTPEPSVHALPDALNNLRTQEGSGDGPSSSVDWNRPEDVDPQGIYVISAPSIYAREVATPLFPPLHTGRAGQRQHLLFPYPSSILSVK

binding | Binder
binds | SC16.121 (antibody, V domains shown) VH: EVQLVESGGGLVQPKGSLKLSCAASGFTFNTYAMNWVRQAPGKGLEWVARIRIKSNNYATYYADSVKDRFTISRDDSQNMLYLQMNNLKTEDTAVYYCVRQGYSYDWGPWFAYWGQGTLVTVSA VL: QIVLTQSPAIMSASPGEKVTITCSASSSVSYMHWFQQKPGTSPKLWIYSTSNLASGVPARFSGSGSGTSYSLTISRMEAEDAATYYCQQRSSYPPTFGGGTKLEIK
binds | SC16.116 (antibody, V domains shown) VH: QVQLKQSGPGRVQPSQSLSITCTVSGFSLTSNGVHWVRQSPGKGLEWLGVLWSGGSTDYNAAFISRLSISKDNYKSQVFFKMNSLQANDTAIYYCARNNNRYGAMDYWGQGTSVTVSS VL: DIVMTQSPSSLTVTAGEKVTMSCTSSQSLLTSGNQKNYLTWYQQKPGQPPKLLIYWASTRESGVPDRFTGSGSGTDFTLTISSLQAEDLAVYYCQNDYSLTFGAGTKLELK
binds | SC16.130 (antibody, V domains shown) VH: EVQLQQSGPELVKPGASVKMSCKASGYTFTSYVMHWVKQKPGQGLEWIGYINPYNDGTEYNEKFKGKATLTSDKSSSTAYMELSSLTSEDSAVYYCARGVYDGYSYFDYWGQGTTLTVSS VL: DIQLTQSPASLSASVGETVTITCRASGSIHNYLAWYQQKQGKSPQLLVYNAKTLVDGVPSRFSGSGSGTQYSLKINSLQPEDFGYYYCQHFWTTPWTFGGGTKLEIK
binds | SC16.111 (antibody, V domains shown) VH: EVQLQQSGPELEKPGASVKISCKASGYSFTGYNMNWVKQSNGKSLEWIGNIDPYYGGSSYKQKFEGKATLTVDKSSSTAYMQLKSLTSEDSAVYYCARGGSNFFDYWGQGTTLTVSS VL: DIQMTQSPASLAASVGETVTITCRASENIYYSLAWYQQKQGKSPQLLIYNANSLEDGVPSRFSGSGSGTQYSMKINSMQPEDTATYFCKQTYDVPLTFGAGTKLELK
binds | SC16.124 (antibody, V domains shown) VH: EVQLQQSGPELVKPGASVKMSCKASGYTFTSYVMHWVKQKPGQGLEWIGYINPYNDGTKYNEKFKGKATLTSDKSSSTAYMELSSLTSEDSAVYYCARGALYYGNYLGYFDVWGAGTTVTVSS VL: DIQMTQSPASQSASLGESVTITCLASQTIGTWLAWYQQKPGKSPQLLISAATSLADGVPSRFSGSGSGTKFSFKISSLQAEDFVSYYCQQLYSTPWTFGGGTKLEIK
binds | SC16.132 (antibody, V domains shown) VH: QVQLKESGPGLVAPSQSLSITCTVSGFSLTDYGVSWIRQPPGKGLEWLGVVWGGGSTYYNSALKSRLSITKDNSKSQVFLKMNSLQTDDTAMYYCAKQRGQYGAYWGQGTLVTVSA VL: DIQMTQSPASQSASLGESVTITCLASQTIGTWLAWYQQKPGKSPQLLIYAATSLADGVPSRFSGSGSGTKFSFKISSLQAEDFVSYYCQQLYSTPWTFGGGTKLEIK
binds | SC16.129 (antibody, V domains shown) VH: QVQLKESGPGLVAPSQSLSITCTVSGFSLTDYGVSWIRQPPGKGLEWLGVIWGGGSTYYNSALKSRLSISKDNSKSQVFLELNSLQTDDTAIYYCAKHYGHYAAYWGQGTLVTVSA VL: DIQMTQSPASQSASLGESVTITCLASQTIGTWLAWYQQKPGKSPQLLIYAATSLADGVPSRFSGSGSGTKFSFKISSLQAEDFVSYYCQQLYSTPYTFGGGTKLEIK
binds | SC16.106 (antibody, V domains shown) VH: QVQLKQSGPGLVAPSQSLFITCTVSGFSLTSYEINWVRQPPGKGLEWLGVIWTGGSTNYNSALISRLSISKDNSKSLVFLKMNSLQTDDTAIYYCVRGVYAMDYWGQGTSVTVSS VL: DIKMTQSPSSMYASLGERVTITCKASQDINSYLSWFQQKPGKSPKTLIYRANRLVDGVPSRFSGSGSGQDYSLTISSLEYEDMGIYYCLQYDEFPFTFGSGTKLEIK
binds | SC16.104 (antibody, V domains shown) VH: QVQLKESGPDLVQPSQTLSLTCTVSGFSLTFYGVHWVRQPPGKGLEWVGTMGWDDKKYYNSALKSRLSISRDTSKNQVFLKLSSLQTEDTAMYYCTRGGTGFDYWGQGTTLTVSS VL: QIVLSQSPAILSASPGEKVTMTCRASSSVSYIHWYRQKPGSSPKPWIYATSNLASGVPARFSGSGSGTSYSLTISRVEAEDAATYYCQQWSSNPPTFGAGTKLELK
binds | SC16.114 (antibody, V domains shown) VH: EVQLQQSGAELVKPGASVKLSCTASGFNIKDTYIHWVKQRPEQGLEWIGRIDPANGNTKYDPKFQGKATITPDTSSNTAYLQLSSLTSEDTAVYYCARSWRNYGSSFWYFDVWGAGTTVTVSS VL: QIVLSQSPAILSASPGEKVTMTCRASSSVSYMHWYQQKPGSSPKPWIYATSNLASGVPARFSGSGSGTSYSLTISRVEAEDAATYYCQQWSSNPYTFGGGTKLEIK
binds | SC16.101 (antibody, V domains shown) VH: QVTLKESGPGILQPSQTLSLTCSFSGFSLSTSGMGVGWIRQPSGKGLEWLAHIWWDDVKRYNPALKSRLTISKDASSSQVFLKIASVDTAETATYYCAHILDRAYYFDYWGQGTTLTVTS VL: QIVLTQSPAIMSASLGERVTMTCTASSSVSSSYLHWYQQKPGSSPKLWIYSTSNLASGVPARFSGSESGTSYSLTISNMEAEDAATYYCHQYHRSPFTFGSGTKLEIK
binds | SC16.10 (antibody, V domains shown) VH: QVTLKESGPGILQSSQTLSLTCSFSGFSLSTSGMGVGWIRQPSGKGLEWLAHIWWDDVKRYNPVLKSRLTISKDTSSSQVFLKIASVDTADTATYYCARLVDDLYYFDYWGQGTTLTVSS VL: QIVLTQSPAIMSASLGERVTMTCTASSSVSSSYLHWYQQKPGSSPKLWIYSTSNLASGVPTRFSGSGSGTSYSLTISSMEAEDAATYYCHQYHRSPFTFGSGTKLEIK
binds | SC16.123 (antibody, V domains shown) VH: QVALKESGPGILQPSQTLSLTCSFSGFSLSTSGMGVGWIRQPSGKGLEWLAHIWWDDVKRYNPALKSRLTISKDTSSSQVFLKIASVDTADTATYYCARMEDYGSSSYFDFWGHGTTLTVSS VL: QIVLTQSPAIMSASLGERVTMTCTASSSVSSSYLHWYQQKPGSSPKLWIYSTSNLASGVPARFSGSGSGTSYSLTISSMETEDAATYYCHQYHRSPFTFGSGTKLEIK
binds | SC16.103 (antibody, V domains shown) VH: QVTLKESGPGILKPSQTLSLTCSFSGFSLSTSGMGIGWIRQPSGKGLEWLAHIWWDDDKYYNPSLKSQLTISKDSSRNQVFLKITSVDTADTATYYCARRGTAYYFDYWGQGTTLTVSS VL: DIVLTQSPASLAVSLGQRATISCRASKSVSTSGYSYMHWYQQKPGQPPKLLIYLASNLESGVPARFSGSGSGTDFTLNIHPVEEEDAATYYCQHSRELPLTFGAGTKLELK
binds | SC16.105 (antibody, V domains shown) VH: QVQLQQPGAELVKPGASVKLSCKASGYTFTSYWMHWVKQRPGQGLEWIGVINPSNGRTNYNEKFKSKATLTVDKSSSTAYMQLSSLTSEDSAVYYCARRRELGTLYAMDYWGQGTSVTVSS VL: DIVMTQSHKFMSTSVGDRVSITCKASQDVGTAVAWYQQKPGQSPKLLIYWASIRHTGVPDRFTGSGSGTDFTLTISNVQSEDLADYFCQQYSSYPLTFGAGTKLELK
binds | SC16.109 (antibody, V domains shown) VH: QIQLVQSGPELKKPGETVKISCKASGYTFTNYGMNWVKQAPGKGLKWMGWINTYTGEPAYADDFKGRFAFSLETSASAAYLQINNLKNEDTATFFCANMRPTRGFAYWGQGTLGTVSA VL: QIVLTQSPAIMSASPGEKVTMTCSASSSVSYMYWYQQKPGSSPRLLIYDTSNLASGVPVRFSGSGSGTSFSLTISRMEAEDTATYYCQEWSGNPLTFGDGTKLELK
binds | SC16.8 (antibody, V domains shown) VH: QAQLQQSGAELVRPGTSVKVSCKASGYAFTNYLIEWVKQRPGQGLEWIGVINPGTGGTNYNENFKGKATLTADKSSSTAYMQLSSLTSDDSAVYFCARSPYDYHEGAMDYWGQGTSVTVSS VL: EIQMTQSPSSMSASLGDRITITCQATQDIVKNLNWYQQKPGKPPSFLIYYAIELAEGVPSRFSGSGSGSDYSLTISNLESEDFADYYCLQFYEFPFTFGAGTKLELK
binds | SC16.107 (antibody, V domains shown) VH: EVQLQQSGPELVKPGASVKMSCKASGYTFTNYVMHWVKQKPGQGLEWIGYINPYNDGTKYNEKFKGKATLTSDKSSTTAYMALSSLTSEDSAVYYCAVAYYSNWGFAYWGQGTLVTVSA VL: DIVMTQSHKFMSTSVGDRVSITCKASQDVNTAVGWYQQKPGQSPKLLIYSASYRYTGVPDRFTGSGSGTDFTFTISSVQAEDLAVYYCQQHYSSPYTFGGGTKVEIK
binds | SC16.117 (antibody, V domains shown) VH: QVQLKESGPGLVAPSQSLSITCTVSGFSLTNYGVHWVRQPPGKGLEWLGVIWAGGITNYNSALMSRLSISEDNSKSQVFLKMNSLQTDDTAMYYCARNLGPYAMDYWGQGTSVTVSS VL: DIQMNQSPSSLSASLGDTITITCHVSQNINVWLSWYQQKPGNIPKLLIQKASNLHTGVPSRFSGSGSGTGFTLTISSLQPEDIATYYCQQGQSYPFTFGSGTKLEIK
binds | SC16.126 (antibody, V domains shown) VH: QVQMKESGPGLVAPSQSLSITCTVSGSSLTNYGVHWVRQPPGKGLEWLGVIWAGGSTNYNSALMSRLSISKDNSKSQVFLKMNSLQTDDTAMYYCARDWEGWFAYWGQGTLVTVSA VL: DIQMNQSPSSLSASLGDTITITCHASQNINVWLSWYQQKPGNIPKLLIYKASNLHTGVPSRFSGSGSGTGFTLTISSLQPEDIATYYCQQGQSYPFTFGSGTKLEIK
binds | SC16.131 (antibody, V domains shown) VH: QVQLKESGPGLVAPSQSLSITCTVSGFSLTNYGVHWVRQPPGKGLEWLGVIWAGGITNYNSALMSRLSISEDNSKSQVFLKMNSLQTDDTAMYYCARNLGPYAMDYWGQGTSVTVSS VL: DIQMNQSPSSLSASLGDTITITCHVSQNINVWLSWYQQKPGNIPKLLIQKASNLHTGVPSRFSGSGSGTGFTLTISSLQPEDIATYYCQQGQSYPFTFGSGTKLEIK
binds | SC16.110 (antibody, V domains shown) VH: EVQLQQSGPGLVRTGASVKISCKASGYSFTGYYMHWVKQSHGKSLEWIGYISCYNGATTYNQNFKGKATFIVDTSSSTAYMQFNSLTSEDSAVYYCARSDGGHAMDYWGQGTSVTVSS VL: NIVMTQTPKFLLVSAGDRVTITCKASQSVSNDVAWYQQKPGQSPKLLIYYASNRYTGVPDRFTGSGYGTDFTFTISTVQAEDLAVYFCQQDYSSPPTFGGGTKLEIK
